This assay deals with BDF1 mice, L1210 leukemia sc, survival T/C. Nature of the assay: NCI In Vivo Anticancer Drug Screen. Data for tumor model L1210 Leukemia (subcutaneous) in B6D2F1 (BDF1) mice. The note with it: higher T/C = longer survival. As to the method: The antitumor activity of compounds was measured in mice bearing transplantable tumors. Survival or tumor size were measured and the results are expressed as the measurement made in the treated group (T) divided by the measurement made in the vehicle treated control group (C). The tumor model used in this assay is L1210 Leukemia (subcutaneous) in B6D2F1 (BDF1) mice

Where [1] appears, read: T/C endpoint: median survival time, dose: 39.0 mg/kg/injection, schedule: Q01DX Z (sc), vehicle: methylcellulose (MC).
Where [2] appears, read: T/C endpoint: median survival time, dose: 65.0 mg/kg/injection, schedule: Q01DX Z (sc), vehicle: methylcellulose (MC).
[3] abbreviates: T/C endpoint: median survival time, dose: 23.0 mg/kg/injection, schedule: Q01DX Z (sc), vehicle: saline.
[4] abbreviates: T/C endpoint: median survival time, dose: 8.4 mg/kg/injection, schedule: Q01DX Z (sc), vehicle: other.
[5] abbreviates: T/C endpoint: median survival time, dose: 14.0 mg/kg/injection, schedule: Q01DX Z (sc), vehicle: other.
Setting [6] is: T/C endpoint: median survival time, dose: 23.0 mg/kg/injection, schedule: Q01DX Z (sc), vehicle: other.
The mark [7] stands for this setting: T/C endpoint: median survival time, dose: 39.0 mg/kg/injection, schedule: Q01DX Z (sc), vehicle: other.
[8] abbreviates: T/C endpoint: median survival time, dose: 65.0 mg/kg/injection, schedule: Q01DX Z (sc), vehicle: other.
The mark [9] stands for this setting: T/C endpoint: median survival time, dose: 108.0 mg/kg/injection, schedule: Q01DX Z (sc), vehicle: other.

The structures appear in SMILES notation. The list shows only some results of the screen, not a fair sample: it covers a few groups of compounds. Not every dose and run of a compound is shown. T/C: endpoint of the treated group in % of that of the vehicle group. Some entries give survivors of the animals treated and no T/C: the source holds a T/C of zero for them, seemingly a mark for toxic or unscored doses. Some doses without a T/C left all or most animals alive at the check, yet need not have been tolerated: survival well below the control is almost never listed, so the zero probably covers shortened survival too. Counts of survivors are from the toxicity check (mostly the fifth day) where no day follows; animals may have died later. Schedules are NCI's codes, taken here to give the interval after Q, in days (D) or hours (H), and the number of doses after X. Some schedule codes hold Z or #, which are not explained here. Where survival is the endpoint, the PubChem record calls one and a half times the control and up active, and a quarter to a half above the control has no call in these data; cut-offs in other NCI protocols can differ. Some T/C values are followed by the survivors on the day toxicity was checked, most often the fifth; where neither a count nor a note follows, no animal had died by that day.

As to `CN(CCCl)CC1OC(O)C(O)C(O)C1O` (configuration not stated), the survivor count reads like this: (T/C endpoint: median survival time, dose: 78.0 mg/kg/injection, schedule: Q01DX Z (sc), vehicle: methylcellulose (MC)) 1 of 8; (T/C endpoint: median survival time, dose: 130.0 mg/kg/injection, schedule: Q01DX Z (sc), vehicle: methylcellulose (MC)) 3 of 8; (T/C endpoint: median survival time, dose: 216.0 mg/kg/injection, schedule: Q01DX Z (sc), vehicle: methylcellulose (MC)) 3 of 8; (T/C endpoint: median survival time, dose: 360.0 mg/kg/injection, schedule: Q01DX Z (sc), vehicle: methylcellulose (MC)) 1 of 8; (T/C endpoint: median survival time, dose: 600.0 mg/kg/injection, schedule: Q01DX Z (sc), vehicle: methylcellulose (MC)) 0 of 8.
`CCOC(=O)COc1cccc(N(CCCl)CCCl)c1`: the T/C reads like this: under setting [1], 100 % of control [8 of 10 alive]; under setting [2], 100 % of control; (T/C endpoint: median survival time, dose: 108.0 mg/kg/injection, schedule: Q01DX Z (sc), vehicle: methylcellulose (MC)) 100 % of control [8 of 10 alive]; (T/C endpoint: median survival time, dose: 180.0 mg/kg/injection, schedule: Q01DX Z (sc), vehicle: methylcellulose (MC)) 100 % of control [9 of 10 alive]; (T/C endpoint: median survival time, dose: 300.0 mg/kg/injection, schedule: Q01DX Z (sc), vehicle: methylcellulose (MC)) 105 % of control.
Take `CCN(CCCl)Cc1ccc(C(C)C)cc1`: the T/C is, setting by setting: (T/C endpoint: median survival time, dose: 3.0 mg/kg/injection, schedule: Q01DX Z (sc), vehicle: saline) 100 % of control; (T/C endpoint: median survival time, dose: 8.4 mg/kg/injection, schedule: Q01DX Z (sc), vehicle: saline) 105 % of control; under setting [3], 100 % of control.
For `CN(N=O)C(=N)N[N+](=O)[O-]`, the T/C is, setting by setting: (T/C endpoint: median survival time, dose: 2.5 mg/kg/injection, schedule: Q01DX009 (ip), vehicle: saline) 95 % of control; (T/C endpoint: median survival time, dose: 5.0 mg/kg/injection, schedule: Q01DX009 (ip), vehicle: saline) 100 % of control; (T/C endpoint: median survival time, dose: 10.0 mg/kg/injection, schedule: Q01DX009 (ip), vehicle: saline) 100 % of control; (T/C endpoint: median survival time, dose: 14.0 mg/kg/injection, schedule: Q01DX Z (sc), vehicle: saline) 110 % of control; (T/C endpoint: median survival time, dose: 20.0 mg/kg/injection, schedule: Q01DX009 (ip), vehicle: saline) 100 % of control; under setting [3], 100 % of control. Moreover, the T/C is 100 % of control (T/C endpoint: median survival time, dose: 39.0 mg/kg/injection, schedule: Q01DX Z (sc), vehicle: saline); 110 % of control (T/C endpoint: median survival time, dose: 65.0 mg/kg/injection, schedule: Q01DX Z (sc), vehicle: saline); 110 % of control (T/C endpoint: median survival time, dose: 108.0 mg/kg/injection, schedule: Q01DX Z (sc), vehicle: saline); 100 % of control [8 of 10 alive] (T/C endpoint: median survival time, dose: 180.0 mg/kg/injection, schedule: Q01DX Z (sc), vehicle: saline). Also, the survivor count (T/C endpoint: median survival time, dose: 40.0 mg/kg/injection, schedule: Q01DX009 (ip), vehicle: saline) is listed as 8 of 8 and the survivor count (T/C endpoint: median survival time, dose: 80.0 mg/kg/injection, schedule: Q01DX009 (ip), vehicle: saline) is 4 of 8.
As to `N/C(=N/[N+](=O)[O-])N(CCBr)N=O.NC1=CCCN1[N+](=O)[O-]`, the T/C is 100 % of control (T/C endpoint: median survival time, dose: 1.08 mg/kg/injection, schedule: Q01DX Z (sc), vehicle: methylcellulose (MC)); 110 % of control (T/C endpoint: median survival time, dose: 1.8 mg/kg/injection, schedule: Q01DX Z (sc), vehicle: methylcellulose (MC)); 100 % of control (T/C endpoint: median survival time, dose: 3.0 mg/kg/injection, schedule: Q01DX Z (sc), vehicle: methylcellulose (MC)); 110 % of control [9 of 10 alive] (T/C endpoint: median survival time, dose: 5.0 mg/kg/injection, schedule: Q01DX Z (sc), vehicle: methylcellulose (MC)); 110 % of control (T/C endpoint: median survival time, dose: 8.4 mg/kg/injection, schedule: Q01DX Z (sc), vehicle: methylcellulose (MC)); 110 % of control (T/C endpoint: median survival time, dose: 14.0 mg/kg/injection, schedule: Q01DX Z (sc), vehicle: methylcellulose (MC)). Besides, the T/C (T/C endpoint: median survival time, dose: 23.0 mg/kg/injection, schedule: Q01DX Z (sc), vehicle: methylcellulose (MC)) is 105 % of control [9 of 10 alive]; the T/C under setting [1] is 100 % of control [8 of 10 alive]; the T/C under setting [2] is 100 % of control.
In the case of `CCN(CCCl)Cc1cccc2ccccc12`, the T/C is 90 % of control (T/C endpoint: median survival time, dose: 5.0 mg/kg/injection, schedule: Q01DX Z (sc), vehicle: other); 90 % of control [8 of 10 alive] under setting [4]; 95 % of control [9 of 10 alive] under setting [5]; 95 % of control under setting [7]. Further, the survivor count is listed as 6 of 10 under setting [6], 4 of 10 under setting [8] and 10 of 10 under setting [9].
For the molecule `CCOC(=O)COc1ccc(N(CCCl)CCCl)cc1`, the T/C runs as follows: (T/C endpoint: median survival time, dose: 5.0 mg/kg/injection, schedule: Q01DX Z (sc), vehicle: carboxymethylcellulose (CMC)) 100 % of control; (T/C endpoint: median survival time, dose: 10.0 mg/kg/injection, schedule: Q01DX Z (sc), vehicle: carboxymethylcellulose (CMC)) 100 % of control; (T/C endpoint: median survival time, dose: 15.0 mg/kg/injection, schedule: Q01DX Z (sc), vehicle: carboxymethylcellulose (CMC)) 94 % of control; (T/C endpoint: median survival time, dose: 20.0 mg/kg/injection, schedule: Q01DX Z (sc), vehicle: carboxymethylcellulose (CMC)) 100 % of control.
As to `CCN(CCCl)Cc1ccc2c(c1)OCO2`, the T/C under setting [4] is 100 % of control, the T/C under setting [5] was 95 % of control, the T/C under setting [6] was 95 % of control and the T/C under setting [7] was 100 % of control [9 of 10 alive]. Further, the survivor count is 3 of 10 under setting [8] and 0 of 10 under setting [9].
For the molecule `CC1(C)CN1P(=O)(Nc1ncccn1)N1CC1(C)C` (configuration not stated), the T/C was 102 % of control (T/C endpoint: mean survival time, dose: 200.0 mg/kg/injection, schedule: Q08DX003 (sc), vehicle: saline, evaluated on day 7); 102 % of control (T/C endpoint: mean survival time, dose: 200.0 mg/kg/injection, schedule: Q08DX003 (sc), vehicle: saline, evaluated on day 31); 109 % of control (T/C endpoint: mean survival time, dose: 400.0 mg/kg/injection, schedule: Q08DX003 (sc), vehicle: saline, evaluated on day 7); 109 % of control (T/C endpoint: mean survival time, dose: 400.0 mg/kg/injection, schedule: Q08DX003 (sc), vehicle: saline, evaluated on day 31); 118 % of control (T/C endpoint: mean survival time, dose: 800.0 mg/kg/injection, schedule: Q08DX003 (sc), vehicle: saline, evaluated on day 7); 118 % of control (T/C endpoint: mean survival time, dose: 800.0 mg/kg/injection, schedule: Q08DX003 (sc), vehicle: saline, evaluated on day 31). Besides, the T/C is, setting by setting: (T/C endpoint: mean survival time, dose: 1600.0 mg/kg/injection, schedule: Q08DX003 (sc), vehicle: saline, evaluated on day 7) 117 % of control; (T/C endpoint: mean survival time, dose: 1600.0 mg/kg/injection, schedule: Q08DX003 (sc), vehicle: saline, evaluated on day 31) 117 % of control; (T/C endpoint: median survival time, dose: 200.0 mg/kg/injection, schedule: Q08DX003 (sc), vehicle: saline, evaluated on day 7) 105 % of control; (T/C endpoint: median survival time, dose: 200.0 mg/kg/injection, schedule: Q08DX003 (sc), vehicle: saline, evaluated on day 42) 100 % of control; (T/C endpoint: median survival time, dose: 400.0 mg/kg/injection, schedule: Q08DX003 (sc), vehicle: saline, evaluated on day 7) 113 % of control; (T/C endpoint: median survival time, dose: 400.0 mg/kg/injection, schedule: Q08DX003 (sc), vehicle: saline, evaluated on day 42) 111 % of control. Besides, the T/C was 115 % of control (T/C endpoint: median survival time, dose: 800.0 mg/kg/injection, schedule: Q08DX003 (sc), vehicle: saline, evaluated on day 7); 111 % of control (T/C endpoint: median survival time, dose: 800.0 mg/kg/injection, schedule: Q08DX003 (sc), vehicle: saline, evaluated on day 42); 120 % of control (T/C endpoint: median survival time, dose: 1600.0 mg/kg/injection, schedule: Q08DX003 (sc), vehicle: saline, evaluated on day 7); 116 % of control (T/C endpoint: median survival time, dose: 1600.0 mg/kg/injection, schedule: Q08DX003 (sc), vehicle: saline, evaluated on day 42).

The values above are taken from PubChem BioAssay AID250 (DTP/NCI, 2004).
